Assay results published in PMC3469426.

Target: T1, LSD-LIKE 1 (LDL1), FLAG tagged, expressed under its own promoter (Arabidopsis thaliana) (UniProt Q8VXV7)
T1 sequence: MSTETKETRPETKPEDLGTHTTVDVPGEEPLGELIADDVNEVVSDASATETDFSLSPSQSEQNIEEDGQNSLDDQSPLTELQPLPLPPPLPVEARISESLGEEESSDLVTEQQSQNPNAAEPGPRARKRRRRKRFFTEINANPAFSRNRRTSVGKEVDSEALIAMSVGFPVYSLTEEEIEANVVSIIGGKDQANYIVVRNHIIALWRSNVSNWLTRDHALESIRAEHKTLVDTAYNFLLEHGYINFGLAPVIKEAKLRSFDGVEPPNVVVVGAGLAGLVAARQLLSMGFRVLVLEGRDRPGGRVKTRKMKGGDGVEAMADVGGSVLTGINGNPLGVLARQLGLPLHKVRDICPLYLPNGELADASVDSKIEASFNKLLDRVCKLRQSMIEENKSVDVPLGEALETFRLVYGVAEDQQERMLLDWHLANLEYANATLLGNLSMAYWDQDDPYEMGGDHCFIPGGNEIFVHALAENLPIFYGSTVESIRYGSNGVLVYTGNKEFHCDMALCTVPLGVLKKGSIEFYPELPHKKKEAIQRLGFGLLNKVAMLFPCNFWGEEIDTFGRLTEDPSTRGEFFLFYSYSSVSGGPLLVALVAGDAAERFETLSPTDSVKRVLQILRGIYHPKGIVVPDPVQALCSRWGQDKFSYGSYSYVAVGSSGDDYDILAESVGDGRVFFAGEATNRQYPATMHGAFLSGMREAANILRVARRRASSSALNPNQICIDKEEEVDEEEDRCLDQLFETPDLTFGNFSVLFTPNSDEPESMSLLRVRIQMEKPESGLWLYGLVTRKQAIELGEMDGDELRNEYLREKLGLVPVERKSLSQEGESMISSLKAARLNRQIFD
Experiment: affinity purification with mass spectrometry; FLAG affinity purification of LDL1-3xFLAG from ~15 g inflorescence tissue of transgenic plants, Col-0 as control; lysis buffer 50 mM Tris pH 7.5, 300 mM NaCl, 5 mM MgCl2, 5% glycerol, 0.02% NP-40, 0.5 mM DTT; two replicate purifications

binding: binds
B1: SU(VAR)3-9 RELATED 5 (SUVR5) (protein, UniProt O64827 1-1382)
chain: MEVKMDELVLDVDVEEATGSELLVKSEPEADLNAVKSSTDLVTVTGPIGKNGEGESSPSEPKWLQQDEPIALWVKWRGKWQAGIRCAKADWPLTTLRGKPTHDRKKYCVIFFPHTKNYSWADMQLVRSINEFPDPIAYKSHKIGLKLVKDLTAARRYIMRKLTVGMFNIVDQFPSEVVSEAARDIIIWKEFAMEATRSTSYHDLGIMLVKLHSMILQRYMDPIWLENSFPLWVQKCNNAVNAESIELLNEEFDNCIKWNEVKSLSESPMQPMLLSEWKTWKHDIAKWFSISRRGVGEIAQPDSKSVFNSDVQASRKRPKLEIRRAETTNATHMESDTSPQGLSAIDSEFFSSRGNTNSPETMKEENPVMNTPENGLDLWDGIVVEAGGSQFMKTKETNGLSHPQDQHINESVLKKPFGSGNKSQQCIAFIESKGRQCVRWANEGDVYCCVHLASRFTTKSMKNEGSPAVEAPMCGGVTVLGTKCKHRSLPGFLYCKKHRPHTGMVKPDDSSSFLVKRKVSEIMSTLETNQCQDLVPFGEPEGPSFEKQEPHGATSFTEMFEHCSQEDNLCIGSCSENSYISCSEFSTKHSLYCEQHLPNWLKRARNGKSRIISKEVFVDLLRGCLSREEKLALHQACDIFYKLFKSVLSLRNSVPMEVQIDWAKTEASRNADAGVGEFLMKLVSNERERLTRIWGFATGADEEDVSLSEYPNRLLAITNTCDDDDDKEKWSFSGFACAICLDSFVRRKLLEIHVEERHHVQFAEKCMLLQCIPCGSHFGDKEQLLVHVQAVHPSECKSLTVASECNLTNGEFSQKPEAGSSQIVVSQNNENTSGVHKFVCKFCGLKFNLLPDLGRHHQAEHMGPSLVGSRGPKKGIRFNTYRMKSGRLSRPNKFKKSLGAVSYRIRNRAGVNMKRRMQGSKSLGTEGNTEAGVSPPLDDSRNFDGVTDAHCSVVSDILLSKVQKAKHRPNNLDILSAARSACCRVSVETSLEAKFGDLPDRIYLKAAKLCGEQGVQVQWHQEGYICSNGCKPVKDPNLLHPLIPRQENDRFGIAVDAGQHSNIELEVDECHCIMEAHHFSKRPFGNTAVLCKDISFGKESVPICVVDDDLWNSEKPYEMPWECFTYVTNSILHPSMDLVKENLQLRCSCRSSVCSPVTCDHVYLFGNDFEDARDIYGKSMRCRFPYDGKQRIILEEGYPVYECNKFCGCSRTCQNRVLQNGIRAKLEVFRTESKGWGLRACEHILRGTFVCEYIGEVLDQQEANKRRNQYGNGDCSYILDIDANINDIGRLMEEELDYAIDATTHGNISRFINHSCSPNLVNHQVIVESMESPLAHIGLYASMDIAAGEEITRDYGRRPVPSEQENEHPCHCKATNCRGLLS

No constants are given. Whether binding was seen depends on the method and setting. In cells and extracts the contact can be indirect. Here binding means that the protein was enriched with, or labelled near, the bait; the list need not be complete. Where a sequence is shown, tags or fusion partners need not be part of it.
